No constants are given. Whether binding was seen depends on the method and setting. Some entries that bind do so weakly or less than the wild type. Sequences can lack the tags named with a protein.
T1: Brn1 kleisin subunit of condensin, Brn1-HA3-His12 (S. cerevisiae) (UniProt P38170)
T1 sequence: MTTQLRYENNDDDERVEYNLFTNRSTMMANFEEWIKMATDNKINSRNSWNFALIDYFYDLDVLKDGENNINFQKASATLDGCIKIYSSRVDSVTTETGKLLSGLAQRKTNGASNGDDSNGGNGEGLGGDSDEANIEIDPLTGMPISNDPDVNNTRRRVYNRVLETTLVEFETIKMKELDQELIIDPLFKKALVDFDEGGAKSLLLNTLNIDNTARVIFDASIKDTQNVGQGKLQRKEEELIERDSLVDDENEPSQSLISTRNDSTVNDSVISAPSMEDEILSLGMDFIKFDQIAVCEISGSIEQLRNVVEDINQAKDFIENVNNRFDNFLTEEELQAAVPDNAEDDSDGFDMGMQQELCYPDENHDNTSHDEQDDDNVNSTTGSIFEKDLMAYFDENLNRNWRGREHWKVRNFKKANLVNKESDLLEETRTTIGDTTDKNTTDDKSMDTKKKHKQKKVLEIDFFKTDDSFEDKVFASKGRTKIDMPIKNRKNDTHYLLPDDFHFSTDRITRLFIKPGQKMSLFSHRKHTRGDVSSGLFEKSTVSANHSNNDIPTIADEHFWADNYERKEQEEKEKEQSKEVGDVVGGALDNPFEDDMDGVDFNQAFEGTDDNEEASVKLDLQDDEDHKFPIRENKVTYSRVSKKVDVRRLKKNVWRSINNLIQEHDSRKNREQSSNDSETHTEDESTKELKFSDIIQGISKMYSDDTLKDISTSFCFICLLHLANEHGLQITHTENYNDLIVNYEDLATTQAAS


Target: T1, Brn1 kleisin subunit of condensin, Brn1-HA3-His12 (S. cerevisiae)
Experiment: tandem affinity co-purification + SEC

binding | Binder
binds | Smc4 subunit of condensin, Smc4-StrepII3 (wild-type) (protein, UniProt Q12267 1-1418) MSDSPLSKRQKRKSAQEPELSLDQGDAEEDSQVENRVNLSENTPEPDLPALEASYSKSYTPRKLVLSSGENRYAFSQPTNSTTTSLHVPNLQPPKTSSRGRDHKSYSQSPPRSPGRSPTRRLELLQLSPVKNSRVELQKIYDRHQSSSKQQSRLFINELVLENFKSYAGKQVVGPFHTSFSAVVGPNGSGKSNVIDSMLFVFGFRANKMRQDRLSDLIHKSEAFPSLQSCSVAVHFQYVIDESSGTSRIDEEKPGLIITRKAFKNNSSKYYINEKESSYTEVTKLLKNEGIDLDHKRFLILQGEVENIAQMKPKAEKESDDGLLEYLEDIIGTANYKPLIEERMGQIENLNEVCLEKENRFEIVDREKNSLESGKETALEFLEKEKQLTLLRSKLFQFKLLQSNSKLASTLEKISSSNKDLEDEKMKFQESLKKVDEIKAQRKEIKDRISSCSSKEKTLVLERRELEGTRVSLEERTKNLVSKMEKAEKTLKSTKHSISEAENMLEELRGQQTEHETEIKDLTQLLEKERSILDDIKLSLKDKTKNISAEIIRHEKELEPWDLQLQEKESQIQLAESELSLLEETQAKLKKNVETLEEKILAKKTHKQELQDLILDLKKKLNSLKDERSQGEKNFTSAHLKLKEMQKVLNAHRQRAMEARSSLSKAQNKSKVLTALSRLQKSGRINGFHGRLGDLGVIDDSFDVAISTACPRLDDVVVDTVECAQHCIDYLRKNKLGYARFILLDRLRQFNLQPISTPENVPRLFDLVKPKNPKFSNAFYSVLRDTLVAQNLKQANNVAYGKKRFRVVTVDGKLIDISGTMSGGGNHVAKGLMKLGTNQSDKVDDYTPEEVDKIERELSERENNFRVASDTVHEMEEELKKLRDHEPDLESQISKAEMEADSLASELTLAEQQVKEAEMAYVKAVSDKAQLNVVMKNLERLRGEYNDLQSETKTKKEKIKGLQDEIMKIGGIKLQMQNSKVESVCQKLDILVAKLKKVKSASKKSGGDVVKFQKLLQNSERDVELSSDELKVIEEQLKHTKLALAENDTNMNETLNLKVELKEQSEQLKEQMEDMEESINEFKSIEIEMKNKLEKLNSLLTYIKSEITQQEKGLNELSIRDVTHTLGMLDDNKMDSVKEDVKNNQELDQEYRSCETQDESEIKDAETSCDNYHPMNIDETSDEVSRGIPRLSEDELRELDVELIESKINELSYYVEETNVDIGVLEEYARRLAEFKRRKLDLNNAVQKRDEVKEQLGILKKKRFDEFMAGFNIISMTLKEMYQMITMGGNAELELVDSLDPFSEGVTFSVMPPKKSWRNITNLSGGEKTLSSLALVFALHKYKPTPLYVMDEIDAALDFRNVSIVANYIKERTKNAQFIVISLRNNMFELAQQLVGVYKRDNRTKSTTIKNIDILNRT
binds | Smc4(Q302L)-StrepII3, ATPase-deficient Q-loop mutant (protein, UniProt Q12267 1-1418) MSDSPLSKRQKRKSAQEPELSLDQGDAEEDSQVENRVNLSENTPEPDLPALEASYSKSYTPRKLVLSSGENRYAFSQPTNSTTTSLHVPNLQPPKTSSRGRDHKSYSQSPPRSPGRSPTRRLELLQLSPVKNSRVELQKIYDRHQSSSKQQSRLFINELVLENFKSYAGKQVVGPFHTSFSAVVGPNGSGKSNVIDSMLFVFGFRANKMRQDRLSDLIHKSEAFPSLQSCSVAVHFQYVIDESSGTSRIDEEKPGLIITRKAFKNNSSKYYINEKESSYTEVTKLLKNEGIDLDHKRFLILLGEVENIAQMKPKAEKESDDGLLEYLEDIIGTANYKPLIEERMGQIENLNEVCLEKENRFEIVDREKNSLESGKETALEFLEKEKQLTLLRSKLFQFKLLQSNSKLASTLEKISSSNKDLEDEKMKFQESLKKVDEIKAQRKEIKDRISSCSSKEKTLVLERRELEGTRVSLEERTKNLVSKMEKAEKTLKSTKHSISEAENMLEELRGQQTEHETEIKDLTQLLEKERSILDDIKLSLKDKTKNISAEIIRHEKELEPWDLQLQEKESQIQLAESELSLLEETQAKLKKNVETLEEKILAKKTHKQELQDLILDLKKKLNSLKDERSQGEKNFTSAHLKLKEMQKVLNAHRQRAMEARSSLSKAQNKSKVLTALSRLQKSGRINGFHGRLGDLGVIDDSFDVAISTACPRLDDVVVDTVECAQHCIDYLRKNKLGYARFILLDRLRQFNLQPISTPENVPRLFDLVKPKNPKFSNAFYSVLRDTLVAQNLKQANNVAYGKKRFRVVTVDGKLIDISGTMSGGGNHVAKGLMKLGTNQSDKVDDYTPEEVDKIERELSERENNFRVASDTVHEMEEELKKLRDHEPDLESQISKAEMEADSLASELTLAEQQVKEAEMAYVKAVSDKAQLNVVMKNLERLRGEYNDLQSETKTKKEKIKGLQDEIMKIGGIKLQMQNSKVESVCQKLDILVAKLKKVKSASKKSGGDVVKFQKLLQNSERDVELSSDELKVIEEQLKHTKLALAENDTNMNETLNLKVELKEQSEQLKEQMEDMEESINEFKSIEIEMKNKLEKLNSLLTYIKSEITQQEKGLNELSIRDVTHTLGMLDDNKMDSVKEDVKNNQELDQEYRSCETQDESEIKDAETSCDNYHPMNIDETSDEVSRGIPRLSEDELRELDVELIESKINELSYYVEETNVDIGVLEEYARRLAEFKRRKLDLNNAVQKRDEVKEQLGILKKKRFDEFMAGFNIISMTLKEMYQMITMGGNAELELVDSLDPFSEGVTFSVMPPKKSWRNITNLSGGEKTLSSLALVFALHKYKPTPLYVMDEIDAALDFRNVSIVANYIKERTKNAQFIVISLRNNMFELAQQLVGVYKRDNRTKSTTIKNIDILNRT

Reference: doi:10.1101/137711
